# Assay results published in patent US20090280488A1.
# By UniProt entry, the sequences of proteins in these tests, tags left out. Where a name states a change or a piece, a line headed by the entry shows the natural chain unless it says otherwise. Chains listed by the source or under a name are the forms on record and can include a tag or linker.
# mutant huntingtin (Htt111Q) (P42858, form named): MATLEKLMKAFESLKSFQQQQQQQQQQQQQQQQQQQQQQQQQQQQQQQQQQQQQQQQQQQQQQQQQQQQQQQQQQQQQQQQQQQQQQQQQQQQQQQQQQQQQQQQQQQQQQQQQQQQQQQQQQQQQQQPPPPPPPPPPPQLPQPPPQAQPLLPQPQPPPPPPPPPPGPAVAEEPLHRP
# mutant ataxin-1 (AT1-82Q) (P54253, form named): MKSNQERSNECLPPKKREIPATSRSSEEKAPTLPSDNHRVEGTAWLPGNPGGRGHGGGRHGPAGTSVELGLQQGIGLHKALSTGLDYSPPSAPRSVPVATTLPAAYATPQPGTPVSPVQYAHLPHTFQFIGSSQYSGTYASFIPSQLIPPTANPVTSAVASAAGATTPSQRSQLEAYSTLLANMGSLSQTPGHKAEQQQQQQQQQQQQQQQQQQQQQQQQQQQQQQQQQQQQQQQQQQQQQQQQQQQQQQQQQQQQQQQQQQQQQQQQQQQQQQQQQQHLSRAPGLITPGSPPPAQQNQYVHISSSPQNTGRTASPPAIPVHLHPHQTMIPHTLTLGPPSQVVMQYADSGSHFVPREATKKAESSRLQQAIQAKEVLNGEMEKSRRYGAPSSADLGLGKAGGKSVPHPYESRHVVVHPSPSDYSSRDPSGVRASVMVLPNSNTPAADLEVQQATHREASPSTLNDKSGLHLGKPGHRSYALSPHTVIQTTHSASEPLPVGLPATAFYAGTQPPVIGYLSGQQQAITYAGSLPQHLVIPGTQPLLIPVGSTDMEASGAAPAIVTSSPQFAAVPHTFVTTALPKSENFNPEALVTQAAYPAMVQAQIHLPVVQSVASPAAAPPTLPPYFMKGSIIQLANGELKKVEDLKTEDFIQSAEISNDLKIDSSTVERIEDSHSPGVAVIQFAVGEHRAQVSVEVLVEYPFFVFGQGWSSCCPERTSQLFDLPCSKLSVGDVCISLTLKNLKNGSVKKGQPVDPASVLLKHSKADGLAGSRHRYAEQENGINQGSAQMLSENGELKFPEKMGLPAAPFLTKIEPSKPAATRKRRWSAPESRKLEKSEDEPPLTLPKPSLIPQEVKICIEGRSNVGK
# UniProt P63158: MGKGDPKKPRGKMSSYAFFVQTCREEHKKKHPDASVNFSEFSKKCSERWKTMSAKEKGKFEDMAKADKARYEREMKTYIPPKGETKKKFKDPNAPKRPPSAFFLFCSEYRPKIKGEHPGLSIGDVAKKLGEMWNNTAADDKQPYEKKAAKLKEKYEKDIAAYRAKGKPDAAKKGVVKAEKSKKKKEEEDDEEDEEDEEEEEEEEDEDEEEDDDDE
# Results are given in words; binding and its absence hold for the method and conditions named. In cells and extracts the contact can be indirect. Some entries that bind do so weakly or less than the wild type.
# Experiments:
# [1] = target: mutant huntingtin (Htt111Q) (human) (UniProt P42858); test: GST pull-down from HeLa cell lysate, blot with CAG53b
# [2] = target: mutant ataxin-1 (AT1-82Q) (human) (UniProt P54253); test: as above
# [3] = target: mutant huntingtin (Htt111Q) (human) (UniProt P42858); test: co-immunoprecipitation from HeLa cell lysate with anti-HMGB or anti-EGFP antibody, blot with CAG53b
# [4] = target: mutant ataxin-1 (AT1-82Q) (human) (UniProt P54253); test: as above
Substance,binding [1],binding [2],binding [3],binding [4]
GST-HMGB1 fusion protein (rat HMGB1 from pGEX-3X-HMGB1) (from UniProt P63158 1-215),binds,binds,,
HMGB1-EGFP protein (rat HMGB1 expressed from pEGFP-N1-HMGB1) (from UniProt P63158 1-215),,,binds,binds
